PubChem BioAssay AID493014 (National Center for Advancing Translational Sciences (NCATS), 2011)
Hit rate of the full screen: of about 340,000 compounds, about 170 (0.05%) were called active. The inconclusive results got no clear call from the source; some entries with a clear call stand among them for comparison. The call rests on the fitted dose curve; in most records, active means well fitted inhibition curve with a large enough effect in the signal ratio, with a control signal flat (not every such curve was filed as active); inconclusive means small, poorly fitted or top-dose-only effect, or effect the other way, or a change in a side signal; inactive means flat fitted curve, though single readings scatter; the % refers to the signal ratio. Potencies beside an inconclusive call are fits to weak or partial responses and may not hold up.

Assay: qHTS Assay to Find Inhibitors of Chronic Active B-Cell Receptor Signaling;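 on activity change, negative = inhibition: plate controls were basal doxycycline-induced cells for no effect and cells given 10 µM MG132 for full effect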
Details: ABC-DLBCL IkBa-CBG/CBR reporter, luminescence ratio (green luciferase fused to IkBa over red control in TMD8 lymphoma cells), 4 h; activity change, negative = inhibition: at 46.1 µM (top of the series)
Method in brief: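 Concentration-response series (up to 46 uM) were applied to TMD8 dual-reporter cells for 4 h at 37C with doxycycline. Green/red ratio, after filter-overlap correction, defined %Activity; red signal alone was normalised to basal cells and zero luminescence.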
Potency means the concentration at half of the fitted maximal effect.

Row | Compound | Potency | activity change, negative = inhibition
1 | O=C(NC1CCCCCCC1)c1ccc2c(c1)OCO2 | inconclusive: 20.6 µM [falling, single point] | 
2 | Cc1ccc2c(c1)/C(=C/c1ccc(F)cc1)C(=O)N2 | inconclusive: 35.5 µM [falling, single point] | 
3 | COc1cc(CNC(C)(C)C)cc(Br)c1OCc1cccs1 |  | inactive: 9.12%
4 | C=CCOc1cccc(C2C(C(=O)c3ccc(C)o3)=C(O)C(=O)N2c2nccs2)c1 (configuration not stated) |  | inconclusive: 14.2%
5 | COc1ccc2cc(-c3[nH]ncc3CN3CCCC3c3nonc3C)ccc2c1 (configuration not stated) |  | inactive: -5.3%
6 | O=C(CCS(=O)(=O)c1ccccc1)Nc1nccs1 |  | inconclusive: 16.8%
7 | O=C(COC(=O)/C=C/c1ccc(OC(F)F)cc1)NC(=O)NCc1ccccc1 |  | inconclusive: 2.42%
8 | COc1ccc(CN2CCC(C(=O)Nc3ccc(Oc4cccnc4)cc3)CC2)cc1 | inconclusive: 20 µM [falling, partial curve, poor fit] | 
9 | O=S(=O)(c1cccs1)N1CCC(CO)(Cc2ccc(Cl)cc2)CC1 |  | inconclusive: -14.8%
10 | O=[N+]([O-])c1cc(C(F)(F)F)ccc1NCCc1c[nH]c2ccc(O)cc12 |  | inconclusive: 26.1%
11 | Cn1cc(Cl)c(C(=O)NNC(=S)Nc2cccc(Cl)c2)n1 | inconclusive: 31.6 µM [rising, partial curve] | 
12 | Cc1cccc(N2C(=O)CC(Sc3ccccc3C(=O)O)C2=O)c1 (configuration not stated) |  | inconclusive: -27.9%
13 | COc1ccc(C(=O)/C=C/Nc2cc(C)ccn2)cc1 | inconclusive: 35.5 µM [rising, single point] | 
14 | C(=N\Nc1nc2ccccc2[nH]1)/c1ccc2c(c1)OCO2 | inconclusive: 20 µM [falling, partial curve] | 
15 | CCN(CC)c1ccc(CNc2nc3ccccc3n2CCN2CCOCC2)cc1 |  | inactive: 0.96%
16 | COc1ccccc1C(=O)COC(=O)c1cnc(C)cn1 |  | inconclusive: 7.7%
17 | COc1ccc(C(=O)/C=C/Nc2ccc(S(=O)(=O)Nc3nc(C)cc(C)n3)cc2)c(OC)c1 |  | inconclusive: -7.7%
18 | CCOC(=O)N1CCN(C(=O)COc2cccc3c2CCN(Cc2ccccc2F)C3=O)CC1 |  | inconclusive: -16.5%
19 | O=C(CCCN1C(=O)/C(=C\c2cccs2)SC1=S)Nc1ccccn1 | inconclusive: 20 µM [falling, partial curve] | 
20 | COc1cc(N/N=C/c2ccc(N(C)C)cc2)ncn1 |  | inconclusive: 2.15%
21 | CCCCOc1ccc(C(=O)N2CCCC2C(=O)O)cc1 (configuration not stated) |  | inactive: 1.56%
22 | Cc1ccc(C(=O)CC(=O)c2cccc(F)c2)c(O)c1 |  | inconclusive: 19.1%
23 | CCOC(=O)c1csc(NC(=O)c2ccc3c(c2)OCCO3)n1 |  | inconclusive: -2.03%
24 | CCN(CC(=O)Nc1ccccc1OC)C(=O)CN1C(=O)NC(C)(c2ccccc2)C1=O (configuration not stated) |  | inconclusive: 5.3%
25 | COc1cc2ccccc2cc1C(=O)Nc1cccnc1 |  | inconclusive: -16.9%
26 | CCN(CC)c1ccc(NC(=O)C2CCCC2)cc1 |  | inconclusive: -6.66%

Structural class: the entries above containing an aryl methoxy group.
Row | Compound | Potency | activity change, negative = inhibition
3 | COc1cc(CNC(C)(C)C)cc(Br)c1OCc1cccs1 |  | inactive: 9.12%
5 | COc1ccc2cc(-c3[nH]ncc3CN3CCCC3c3nonc3C)ccc2c1 (configuration not stated) |  | inactive: -5.3%
8 | COc1ccc(CN2CCC(C(=O)Nc3ccc(Oc4cccnc4)cc3)CC2)cc1 | inconclusive: 20 µM [falling, partial curve, poor fit] | 
13 | COc1ccc(C(=O)/C=C/Nc2cc(C)ccn2)cc1 | inconclusive: 35.5 µM [rising, single point] | 
16 | COc1ccccc1C(=O)COC(=O)c1cnc(C)cn1 |  | inconclusive: 7.7%
17 | COc1ccc(C(=O)/C=C/Nc2ccc(S(=O)(=O)Nc3nc(C)cc(C)n3)cc2)c(OC)c1 |  | inconclusive: -7.7%
20 | COc1cc(N/N=C/c2ccc(N(C)C)cc2)ncn1 |  | inconclusive: 2.15%
24 | CCN(CC(=O)Nc1ccccc1OC)C(=O)CN1C(=O)NC(C)(c2ccccc2)C1=O (configuration not stated) |  | inconclusive: 5.3%
25 | COc1cc2ccccc2cc1C(=O)Nc1cccnc1 |  | inconclusive: -16.9%

(list continues)

Row | Compound | Potency | activity change, negative = inhibition
27 | Cn1ccnc1SCC(=O)c1ccc(OC(F)F)cc1 |  | inactive: -0.877%
28 | Cc1ccc(C)c(-c2nc3ccc(N)cc3[nH]2)c1 | inconclusive: 5.8 µM [falling, partial curve] | 
29 | C/C(CC(=O)Nc1ccc2c(c1)OCCO2)=N\NC(=O)c1cccc(O)c1 | inconclusive: 31.6 µM [rising, single point] | 
30 | CN(C)/C=C(\C#N)C(=O)Nc1ccc(F)c(Cl)c1 |  | inactive: 1.03%
31 | Cc1ccc(C(=O)NNC(=O)COc2ccc(Cl)cc2C)o1 |  | inactive: -0.546%
32 | COc1cccc(C(=O)OCC(=O)c2ccc(Br)s2)c1 | inconclusive: 31.6 µM [falling, single point] | 
33 | COc1ccc(N2CCN(c3ccnc4cc(Cl)ccc34)CC2)cc1 |  | inactive: 1.89%
34 | Oc1ccc(CN2CCC(Cc3ccccc3)CC2)c2cccnc12 |  | inactive: -22%
35 | CCSc1nnc(NC(=O)c2ccc(C)o2)s1 | inconclusive: 25.9 µM [falling, partial curve] | 
36 | CCOC(=O)C1CCN(C(=O)c2ccccc2NS(=O)(=O)c2ccccc2)CC1 |  | inactive: -0.166%
37 | O=C(COc1ccc(Cl)cc1)Nc1ccc2oc(=O)ccc2c1 |  | inconclusive: -19.3%
38 | COc1ccc(CNC(=O)CN2C(=O)COc3ccc(S(=O)(=O)N4CCOCC4)cc32)cc1 | inconclusive: 3.55 µM [falling, partial curve, poor fit] | 
39 | CC(=O)c1ccc(NC(=O)CSc2cn[nH]n2)cc1 | inconclusive: 10 µM [falling, partial curve] | 
40 | COc1ccc(N/C=C/C(=O)c2cc(OC)c(OC)c(OC)c2)cc1 | inconclusive: 17.8 µM [falling, single point] | 
41 | CCc1ccccc1NC(=O)c1cc(-c2ccc3c(c2)OCO3)on1 | inconclusive: 2.51 µM [falling, partial curve, poor fit] | 
42 | O=C(CN1CCN(c2ccc(Cl)cc2)CC1)c1ccccc1 |  | inconclusive: -3.06%
43 | OC(CNCc1ccc(-c2ccccc2)cc1)c1ccccc1 (configuration not stated) |  | inconclusive: -16.1%
44 | CN(C)c1cccc(C(=O)NC2CCCc3ccccc32)c1 (configuration not stated) |  | inconclusive: 0.108%
45 | COc1ccc2[nH]c(=O)c(-c3noc(-c4ccccc4)n3)cc2c1 |  | inactive: 5.28%
46 | O=C(/C=C/c1cccc(F)c1)c1ccc(N2CCOCC2)cc1 |  | inconclusive: 11.1%
47 | CC(C)NC(=O)c1cc2nc(-c3ccco3)cc(C(F)(F)F)n2n1 |  | inconclusive: 14.4%
48 | O=C(NCCc1c[nH]c2ccccc12)Nc1cccc2ccccc12 | inconclusive: 1.16 µM [falling, partial curve] | 
49 | CC(C)OC(=O)CSc1nnc(-c2ccccc2)n1N |  | inconclusive: 18.9%
50 | CCOC(=O)CNC(=O)c1ccc2[nH]c3ccccc3c2c1 | inconclusive: 6.31 µM [activator, partial curve, poor fit] | 
51 | CCCn1c(N)c(N(C)C)c(=O)n(CC(=O)Nc2ccc(OC(F)(F)F)cc2)c1=O |  | inconclusive: -16.7%
52 | CC1C(=O)N2CCCc3cc(NC(=O)c4ccccc4C(F)(F)F)cc1c32 (configuration not stated) | inconclusive: 20.6 µM [falling, partial curve, poor fit] | 
